PubChem BioAssay AID493014 (National Center for Advancing Translational Sciences (NCATS), 2011)
The whole screen tested about 340,000 compounds, of which about 170 (0.05%) were called active. The inconclusive results got no clear call from the source; some entries with a clear call stand among them for comparison. Calls follow the shape of the dose curve; as a rule, active = well fitted inhibition curve with a large enough effect in the signal ratio, with a control signal flat (not every such curve was filed as active); inconclusive = small, poorly fitted or top-dose-only effect, or effect the other way, or a change in a side signal; inactive = flat fitted curve, though single readings scatter; the % refers to the signal ratio. Where the call is inconclusive, the potency comes from a doubtful curve fit.
Potency is read from the fitted curve at half-maximal effect.

Test: qHTS Assay to Find Inhibitors of Chronic Active B-Cell Receptor Signaling;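 as to activity change, negative = inhibition: plate controls were basal doxycycline-induced cells for no effect and cells given 10 µM MG132 for full effect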
Conditions: ABC-DLBCL IkBa-CBG/CBR reporter, luminescence ratio (green luciferase fused to IkBa over red control in TMD8 lymphoma cells), 4 h; activity change, negative = inhibition: at 46.1 µM (top of the series) unless noted
Outline: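 Compounds up to 46 uM were incubated four hours with TMD8 cells whose green CBG68 luciferase is fused to IkappaBalpha; red CBR luminescence normalised the signal, and concentration-effect curves were fitted to fusion, red and ratio data.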
For `O=C(N/N=C/c1c[nH]c2ccccc12)c1[nH]c2ccc(Br)cc2c1-c1ccccc1`, the activity change, negative = inhibition was inconclusive: 14.3%. In the case of `Nc1nc(Nc2ccccc2F)sc1C(=O)c1ccccc1`, the Potency is reported as inconclusive: 15.8 µM [falling, partial curve]. In the case of `CCn1c(=NC(=O)C2COc3ccccc3O2)sc2c(OC)ccc(OC)c21` (stereo not drawn), the activity change, negative = inhibition is reported as inconclusive: 8.08%. For `COC(=O)C1=C(C)NC2=C(C(=O)CCC2)C1c1cn(Cc2ccc(Br)cc2)nc1-c1ccccc1` (stereo not drawn), the activity change, negative = inhibition was inconclusive: 7.53%. For `COC(=O)c1c(-c2ccc(OC)c(OC)c2)csc1N`, the “activity change, negative = inhibition” value was inactive: 6.3%. For `CC(/C=C/c1ccccc1)=N/NC(=O)c1nc2nc(C)cc(C)n2n1`, the Potency was inconclusive: 35.5 µM [rising, partial curve, poor fit]. With `CC(=O)c1ccc(-c2ccc(C(=O)N3CCCc4ccccc43)o2)cc1` the activity change, negative = inhibition was inconclusive: -21.3%. In the case of `CCC(C)c1ccccc1O` (stereo not drawn), the “activity change, negative = inhibition” value is reported as inactive: 1.92%. In the case of `CCN1C(=O)C(CC(=O)Nc2ccc(OC)cc2)N(CCCN2CCN(c3ccc(F)cc3)CC2)C1=S` (stereo not drawn), the “activity change, negative = inhibition” value is reported as inactive: 1.66%. With `COc1ccccc1/C=C/C(=O)OCCN1CCOCC1` the Potency was inconclusive: 22.4 µM [falling, partial curve]. In the case of `CCCCCn1c(=N)c(S(=O)(=O)c2ccc(Br)cc2)cc2c(=O)n3cccc(C)c3nc21`, the activity change, negative = inhibition is reported as inconclusive: 17.8%. In the case of `O=C(CNc1cccc2ccccc12)c1ccc([N+](=O)[O-])cc1`, the Potency is reported as inconclusive: 2.91 µM [falling, full curve, poor fit]. In the case of `COc1ccccc1-c1nc2cc3ccccc3cc2nc1-c1ccccc1OC`, the “activity change, negative = inhibition” value is reported as inactive: -4.9%. With `O=[n+]1cc(-c2ccc(F)cc2)n([O-])c2c1CCC2` the activity change, negative = inhibition was inconclusive: -0.509%. In the case of `CCc1nnc(NC(=O)CS(=O)(=O)Cc2ccccc2)s1`, the activity change, negative = inhibition is reported as inconclusive: 5.63%. With `CCCCNC(=O)CSc1nc2cc3c(cc2c(=O)n1Cc1ccco1)OCO3` the activity change, negative = inhibition was inconclusive: 5.64%. In the case of `COCCCNC(=O)C(=O)NC1CCCCCC1`, the Potency is reported as inconclusive: 16.4 µM [falling, single point]. For `COc1ccc(CNC(=O)c2ccc3c(c2)N(Cc2ccccc2C)C(=O)c2ccccc2S3=O)cc1` (stereo not drawn), the activity change, negative = inhibition was inconclusive: -0.45%. In the case of `Cc1c(C(=O)Nc2ccc(Cl)cc2)c2ccccn2c1CCc1ccncc1`, the activity change, negative = inhibition is reported as inconclusive: 11.8%. With `Cc1c(C(=O)OCC2CCCO2)[nH]c2c1C(=O)CC(c1ccco1)C2` (stereo not drawn) the activity change, negative = inhibition was inconclusive: 2.8%. With `O=C(OCCCc1ccncc1)c1ccc(S(=O)(=O)N2CCOCC2)cc1` the activity change, negative = inhibition was inconclusive: 5.52%. For `CCN1CCN(CCNC(=O)Nc2ccc([N+](=O)[O-])cc2)CC1`, the activity change, negative = inhibition was inconclusive: 7.92%. For `CCS(=O)(=O)c1ccc(OC)c(N=Nc2ccc(O)c3ncccc23)c1`, the activity change, negative = inhibition was inconclusive: -0.139%. In the case of `COc1ccc(N2CC(NC(=O)c3ccco3)CC2=O)cc1OC` (stereo not drawn), the “activity change, negative = inhibition” value is reported as inactive: -5.23%. With `O=C(CCc1nc2ccccc2[nH]c1=O)N/N=C/c1ccccc1` the “activity change, negative = inhibition” value was inactive: 4.94%. In the case of `CC(C)(C)OC(=O)Nc1ccc([C@H](NC(=O)OC(C)(C)C)C(=O)OC(C)(C)C)cc1`, the activity change, negative = inhibition is reported as inconclusive: 2.33%. With `CC(C)c1ccc(Oc2cccc(C(=O)/C(C#N)=C/N(C)C)c2)cc1` the activity change, negative = inhibition was inconclusive: 18%. For `COC(OC)c1ccnc(SCc2ccccc2Cl)n1`, the activity change, negative = inhibition was inconclusive: -7.06%. For `O=C(O)CN1C(=O)/C(=C\c2ccc(OC(=O)c3ccco3)cc2)SC1=S`, the Potency was inconclusive: 12.6 µM [rising, single point]. In the case of `COC(=O)Nc1cc(C(=O)c2ccc(Cl)cc2Cl)c[nH]1`, the “activity change, negative = inhibition” value is reported as inactive: -0.327%. With `Cc1cc(C)nc(N/N=C/C=C/c2ccccc2)n1` the activity change, negative = inhibition was inconclusive: -0.968%. In the case of `CCOC(=O)c1c(C)oc2c1c(C(c1ccncc1)N1CCOCC1)c(O)c1ccccc12` (stereo not drawn), the activity change, negative = inhibition is reported as inconclusive: -14.6%. In the case of `O=C1CN(C(=O)CSc2nc(-c3ccccc3)cs2)c2ccccc2N1`, the activity change, negative = inhibition is reported as inconclusive: 5.04%. In the case of `CCN1CCCC1Cn1cnc2c([nH]c3cccc(Cl)c32)c1=O` (stereo not drawn), the activity change, negative = inhibition is reported as inconclusive: 4.84%. With `O=S(=O)(O)c1cccc2c(N=Nc3ccc(O)c4ncccc34)cccc12` the activity change, negative = inhibition was inconclusive: 12%. In the case of `COc1ccc(/C(C)=N\Nc2nc(-c3ccc(Cl)cc3)cc(C(F)(F)F)n2)cc1OC`, the “activity change, negative = inhibition” value is reported as inactive: 0.295%. In the case of `CCOc1ccc(NC(=O)CN(C)C(=O)c2ccccc2OCCOc2ccccc2)cc1OCC`, the “activity change, negative = inhibition” value is reported as inactive: -11.6%. For `COc1ccc(C(=O)Oc2cc(/C=N/NC(N)=S)ccc2OC)cc1`, the “activity change, negative = inhibition” value was inactive: 8.12%. In the case of `Cc1cc(C)c(S(=O)(=O)NCC23C=CC(O2)C2C(=O)N(c4ccccc4)C(=O)C23)c(C)c1` (stereo not drawn), the “activity change, negative = inhibition” value is reported as inactive: 10.8%. In the case of `CC(Oc1ccc(S(=O)(=O)N2CCCC2)cc1[N+](=O)[O-])C(=O)NC(C)c1ccccc1` (stereo not drawn), the activity change, negative = inhibition is reported as inconclusive: -0.523%. With `Cc1cc(C(=O)CN2CCN(CC(=O)Nc3ccc(F)cc3)CC2)c(C)n1C1CC1` the Potency was inconclusive: 23.1 µM [falling, partial curve]. In the case of `O=C(Nc1ccc2nc3ccccc3nc2c1)c1ccccc1`, the activity change, negative = inhibition is reported as inconclusive: -1.72%. In the case of `O=C1ON=C(c2ccccc2)/C1=C/c1ccc(-c2ccccc2[N+](=O)[O-])o1`, the Potency is reported as inconclusive: 29.1 µM [falling, single point]. In the case of `CCN(CC(=O)Nc1cccc(OC)c1)C(=O)c1ccco1`, the activity change, negative = inhibition is reported as inconclusive: -0.654%. In the case of `Cc1ccccc1OCC(=O)Nc1ccc2c(c1)OCCO2`, the activity change, negative = inhibition is reported as inconclusive: 2.66%. In the case of `CC(C)c1cc(NC(=O)c2ccccc2)cc(C(C)C)c1O`, the activity change, negative = inhibition is reported as inconclusive: -3.06%. With `N#CC1=C(N)N2C(=C(C#N)C13CCCCC3)SC1CCCCC12O` (stereo not drawn) the activity change, negative = inhibition was inconclusive: -6.15%. In the case of `CS(=O)(=O)NCCCCNc1ccc(C(F)(F)F)cc1[N+](=O)[O-]`, the activity change, negative = inhibition is reported as inconclusive: 3.23%. In the case of `COC(=O)c1ccc2c(c1)N(C)CCS2`, the activity change, negative = inhibition is reported as inconclusive: 6.68%. With `CCCCCCCCOC(=O)C1=C(C)Nc2nnnn2C1c1cccs1` (stereo not drawn) the Potency was inconclusive: 18.4 µM [rising, single point]. With `O=c1cc[nH]c2ccc(OC(F)(F)F)cc12` the activity change, negative = inhibition was inconclusive: 9.72%. For `CSc1nnc2ccc(-c3ccccn3)nn12`, the activity change, negative = inhibition was inconclusive: -2.56%. With `CCOc1ccc2nc(C)cc(Nc3ccc4c(c3)OCCO4)c2c1` the activity change, negative = inhibition was inconclusive: 1.39%. In the case of `O=C(Nc1ccccc1Cl)c1ccccc1`, the “activity change, negative = inhibition” value is reported as inactive: -1.63%. In the case of `CN1CCN(C(=O)CCN2C(=O)/C(=C\c3ccc(Cl)cc3)SC2=S)CC1`, the activity change, negative = inhibition is reported as inconclusive: -14.3%. For `CN1CCN(c2ccc(S(=O)(=O)N3CCCCC3)cc2NC(=O)c2ccc3ccccc3c2)CC1`, the “activity change, negative = inhibition” value was inactive: -0.271%. In the case of `COc1ccc(OCCC(=O)OCC(=O)NC(=O)NC(C)(C)C)cc1`, the Potency is reported as inconclusive: 29.1 µM [falling, single point]. In the case of `Cc1ccn2c(NC3CCCC3)c(-c3ccsc3)nc2c1`, the Potency is reported as inconclusive: 3.98 µM [falling, single point]. With `COc1cc(NC(=O)CSCC(=O)Nc2cccc(C(F)(F)F)c2)c(Cl)cc1Cl` the activity change, negative = inhibition was inconclusive: -8.01%. In the case of `CCc1nnc(N/N=C/c2c(F)cccc2Cl)n1N`, the Potency is reported as inconclusive: 35.5 µM [falling, single point]. For `COc1ccc(CNc2nc3ccccc3n2CCN2CCCCC2)c(OC)c1`, the activity change, negative = inhibition was inconclusive: -15.5%. In the case of `O=c1ccn(Cc2ccccc2)c(=O)n1Cc1ccccc1`, the “activity change, negative = inhibition” value is reported as inactive: -2.13%. With `CN(CCCOc1ccccc1Br)Cc1ccccc1` the activity change, negative = inhibition was inconclusive: 4.93%. In the case of `CCCCN=C1NN=C(c2ccc3c(c2)OCCO3)CS1`, the activity change, negative = inhibition is reported as inconclusive: -20.1%. In the case of `CC(C)c1ccc(OCc2nc(-c3ccccn3)no2)c(Br)c1`, the Potency is reported as inconclusive: 7.94 µM [falling, partial curve]. In the case of `Cc1ccc(SCC(=O)OCC(=O)N(C)CC(=O)Nc2ccccc2Cl)cc1C`, the “activity change, negative = inhibition” value is reported as inactive: -1.24%. In the case of `CCCc1nc2c(C)cc(-c3nc4ccccc4n3C)cc2n1Cc1ccc(-c2ccccc2C(=O)O)cc1`, the activity change, negative = inhibition is reported as inconclusive: -0.879%. In the case of `CCOc1ccc(NC(=O)CCn2cccc2)cc1`, the activity change, negative = inhibition is reported as inconclusive: 1.85%. For `CCN(C(=O)COC(=O)c1cncc(Br)c1)C1CCS(=O)(=O)C1` (stereo not drawn), the Potency was inconclusive: 22.4 µM [falling, single point]. For `COc1ccc(OCC2c3cc(OC)c(OC)cc3CCN2C(=O)COc2ccc(Cl)cc2Cl)cc1` (stereo not drawn), the “activity change, negative = inhibition” value was inactive: 0.0983%. For `CN(C)CCCN(C(=O)c1ccc(S(=O)(=O)N(C)C)cc1)c1nc2cc3c(cc2s1)OCO3`, the activity change, negative = inhibition was inconclusive: -4.55%. For `C=CCn1c(SCC(=O)c2[nH]c(C)c(C(=O)OC)c2C)nc2scc(-c3ccc(OC)c(OC)c3)c2c1=O`, the activity change, negative = inhibition was inconclusive: -0.756%. With `COc1ccc(-c2cc(C)nc3c(-c4ccccc4)cnn23)cc1` the activity change, negative = inhibition was inconclusive: 7.11%. With `Cc1cc(CNC(=O)C2CCC(=O)N(CCc3cccc(F)c3)C2)nn1C` (stereo not drawn) the “activity change, negative = inhibition” value was inactive: 0.229%. In the case of `Cc1ccc(-c2csc(NC(=O)C[n+]3cc(-c4ccc(C)cc4)n4c3CCC4)n2)cc1`, the activity change, negative = inhibition is reported as inconclusive: 8.45%. In the case of `CSc1ccccc1NC(=S)NCc1ccc(Cl)cc1`, the “activity change, negative = inhibition” value is reported as inactive: 2.78%. For `CCOC(=O)c1ccc(NC(=S)NCc2cccnc2)cc1`, the activity change, negative = inhibition was inconclusive: 18.4%. In the case of `NC(=O)c1ccsc1NC(=O)COC(=O)c1ccccc1NCc1ccco1`, the Potency is reported as inconclusive: 2.51 µM [falling, partial curve, poor fit]. In the case of `COc1ccc(N2CCn3c2nc2c3c(=O)n(CCCc3ccccc3)c(=O)n2C)c(OC)c1`, the activity change, negative = inhibition is reported as inconclusive: -0.396%. With `Cc1c(CC(=O)N2CCC(C(N)=O)CC2)c(=O)oc2cc3c(cc12)CCC1(CCCCC1)O3` the “activity change, negative = inhibition” value was inactive: -13.3%. For `Cc1ccc(Cc2cnc(NC(=O)C3CCCO3)s2)cc1` (stereo not drawn), the activity change, negative = inhibition was inconclusive: 11.8%. With `N=c1cc(C2(O)CCCCC2)n2c(nc3ccccc32)s1` the Potency was inconclusive: 0.103 µM [rising, full curve, poor fit]. In the case of `Cc1ccn(-c2ccc(NC(=O)c3cccs3)cc2)n1`, the Potency is reported as inconclusive: 17.8 µM [falling, partial curve].
